Test results reported in patent publication US8476434B2, “Protein kinase modulators and method of use” (Amgen Inc., priority 2004, dated 2013).
pIC50: −log10 of the molar value. Some of these results come from one statement about several compounds together.

Protein sequences, listed by entry. Tags and fused reporters are not part of them. Residues count along the entry.
UniProt Q02763, 23-1124: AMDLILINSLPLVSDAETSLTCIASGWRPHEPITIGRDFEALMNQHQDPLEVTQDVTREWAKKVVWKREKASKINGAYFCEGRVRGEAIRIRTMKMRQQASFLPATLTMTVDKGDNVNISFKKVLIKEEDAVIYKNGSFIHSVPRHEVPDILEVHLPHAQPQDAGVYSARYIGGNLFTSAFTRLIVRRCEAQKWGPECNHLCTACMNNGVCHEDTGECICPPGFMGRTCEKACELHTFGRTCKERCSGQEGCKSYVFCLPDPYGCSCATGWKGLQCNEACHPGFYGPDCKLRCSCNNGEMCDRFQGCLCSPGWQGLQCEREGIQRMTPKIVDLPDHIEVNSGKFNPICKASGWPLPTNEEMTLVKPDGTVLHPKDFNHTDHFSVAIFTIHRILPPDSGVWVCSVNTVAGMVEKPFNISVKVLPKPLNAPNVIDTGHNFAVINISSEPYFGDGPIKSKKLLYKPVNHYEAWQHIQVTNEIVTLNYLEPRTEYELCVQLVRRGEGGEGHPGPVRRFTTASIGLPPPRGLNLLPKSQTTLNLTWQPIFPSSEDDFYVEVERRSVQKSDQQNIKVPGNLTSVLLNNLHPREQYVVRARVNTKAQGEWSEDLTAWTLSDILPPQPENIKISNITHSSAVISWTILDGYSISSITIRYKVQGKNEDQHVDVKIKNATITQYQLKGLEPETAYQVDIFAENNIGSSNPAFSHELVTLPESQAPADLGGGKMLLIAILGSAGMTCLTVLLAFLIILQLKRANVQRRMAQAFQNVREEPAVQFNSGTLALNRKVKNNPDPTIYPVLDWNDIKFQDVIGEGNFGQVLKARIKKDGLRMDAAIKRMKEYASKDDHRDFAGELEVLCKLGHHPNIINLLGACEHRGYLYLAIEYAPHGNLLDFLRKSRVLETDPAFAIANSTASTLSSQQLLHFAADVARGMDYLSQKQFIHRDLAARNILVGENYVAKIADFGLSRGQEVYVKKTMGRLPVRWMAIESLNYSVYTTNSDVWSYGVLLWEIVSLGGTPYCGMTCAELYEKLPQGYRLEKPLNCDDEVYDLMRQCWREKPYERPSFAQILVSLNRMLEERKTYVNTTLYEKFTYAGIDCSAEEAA

The molecules below were run against Tie-2 kinase enzyme (Homo sapiens, UniProt Q02763) (assay: Tie-2 Homogenous Time Resolved Fluorescent (HTRF) kinase assay). Conditions: read-out: IC50's for the inhibition of Tie-2 as measured by the HTRF assay.
Assay type: biochemical

Row | SMILES | pIC50
1 | CCC(C)(C)c1ccc(O)c(NC(=O)c2ccc(C)c(Oc3ncccc3-c3ccnc(NC)c3)c2)c1 [Example 346, N-(5-(1,1-dimethylpropyl)-2-hydroxyphenyl)-4-methyl-3-((2′-(methylamino)-3,4′-bipyridin-2-yl)oxy)benzamide] | > 5.30
2 | CNc1ncnc(-c2cccnc2Oc2cc(C(=O)Nc3cc(C(F)(F)F)ccc3N3CCN(C)CC3)ccc2C)n1 [Example 347, 4-methyl-3-((3-(4-(methylamino)-1,3,5-triazin-2-yl)-2-pyridinyl)oxy)-N-(2-(4-methyl-1-piperazinyl)-5-(trifluoromethyl)phenyl) benzamide] | > 5.30
3 | CNc1cc(-c2cccnc2Oc2cc(C(=O)Nc3cc(C(F)(F)F)ccc3N3CCN(C)CC3)ccc2C)ccn1 [Example 350, 4-methyl-3-((2′-(methylamino)-3,4′-bipyridin-2-yl)oxy)-N-(2-(4-methyl-1-piperazinyl)-5-(trifluoromethyl)phenyl) benzamide] | > 5.30
4 | CNc1cc(-c2cccnc2Oc2cc(C(=O)Nc3cc(C(F)(F)F)ccc3N(C)CCN(C)C)ccc2C)ccn1 [Example 351, N-(2-((2-(dimethylamino)ethyl) (methyl)amino)-5-(trifluoromethyl)phenyl)-4-methyl-3-((2′-(methylamino)-3,4′-bipyridin-2-yl)oxy)benzamide] | > 5.30
5 | CNc1cc(-c2cccnc2Oc2cc(C(=O)Nc3cc(C(F)(F)F)ccc3N(C)CCCN(C)C)ccc2C)ccn1 [Example 352, N-(2-((3-(dimethylamino)propyl) (methyl)amino)-5-(trifluoromethyl)phenyl)-4-methyl-3-((2′-(methylamino)-3,4′-bipyridin-2-yl)oxy)benzamide] | > 5.30
6 | CNc1nccc(-c2cccnc2Oc2cc(C(=O)N(C)c3cccc(C(F)(F)F)c3)ccc2C)n1 [Example 353, N,4-dimethyl-3-((3-(2-(methylamino)-4-pyrimidinyl)-2-pyridinyl)oxy)-N-(3-(trifluoromethyl)phenyl) benzamide] | > 5.30
7 | CNc1ncnc(-c2cccnc2Oc2cc(C(=O)Nc3cc(OC[C@@H]4CCCN4C)cc(C(F)(F)F)c3)ccc2C)n1 [Example 355, 4-methyl-3-((3-(4-(methylamino)-1,3,5-triazin-2-yl)-2-pyridinyl)oxy)-N-(3-((((2S)-1-methyl-2-pyrrolidinyl)methyl)oxy)-5-(trifluoromethyl)phenyl) benzamide] | > 5.30
8 | CNc1nccc(-c2cccnc2Oc2cc(C(=O)Nc3cc(C(F)(F)F)ccc3OCCN3CCCC3)ccc2C)n1 [Example 356, 4-methyl-3-((3-(2-(methylamino)-4-pyrimidinyl)-2-pyridinyl)oxy)-N-(2-((2-(1-pyrrolidinyl)ethyl)oxy)-5-(trifluoromethyl)phenyl) benzamide] | > 5.30
9 | CNc1cc(-c2cccnc2Oc2cc(C(=O)Nc3cc(C(F)(F)F)ccc3N3CCCCC3)ccc2C)ccn1 [Example 358, 4-methyl-3-((2′-(methylamino)-3,4′-bipyridin-2-yl)oxy)-N-(2-(1-piperidinyl)-5-(trifluoromethyl)phenyl) benzamide] | > 5.30
10 | CNc1ncnc(-c2cccnc2Oc2cc(C(=O)Nc3cc(C(F)(F)F)ccc3N3CCCCC3)ccc2F)n1 [Example 359, 4-fluoro-3-((3-(4-(methylamino)-1,3,5-triazin-2-yl)-2-pyridinyl)oxy)-N-(2-(1-piperidinyl)-5-(trifluoromethyl)phenyl) benzamide] | > 5.30
11 | CNc1ncnc(-c2cccnc2Oc2cc(C(=O)Nc3cccc(C(F)(F)F)c3)ccc2F)n1 [Example 360, 4-fluoro-3-((3-(4-(methylamino)-1,3,5-triazin-2-yl)-2-pyridinyl)oxy)-N-(3-(trifluoromethyl)phenyl) benzamide] | > 5.30
12 | CNc1ncnc(-c2cccnc2Oc2cc(C(=O)Nc3cc(C(F)(F)F)ccc3N(C)CCN(C)C)ccc2F)n1 [Example 361, N-(2-((2-(dimethylamino)ethyl) (methyl)amino)-5-(trifuoromethyl)phenyl)-4-fluoro-3-((3-(4-(methylamino)-1,3,5-triazin-2-yl)-2-pyridinyl)oxy)benzamide] | > 5.30
13 | CNc1ncnc(-c2cccnc2Oc2cc(C(=O)Nc3cc(C(F)(F)F)ccc3N(C)CCCN(C)C)ccc2F)n1 [Example 362, N-(2-((3-(dimethylamino)propyl) (methyl)amino)-5-(trifluoromethyl)phenyl)-4-fluoro-3-((3-(4-(methylamino)-1,3,5-triazin-2-yl)-2-pyridinyl)oxy)benzamide] | > 5.30
14 | CNc1ncnc(-c2cccnc2Oc2cc(C(=O)Nc3cc(C(F)(F)F)ccc3N3CCN(C)CC3)ccc2F)n1 [Example 363, 4-fluoro-3-((3-(4-(methylamino)-1,3,5-triazin-2-yl)-2-pyridinyl)oxy)-N-(2-(4-methyl-1-piperazinyl)-5-(trifluoromethyl)phenyl) benzamide] | > 5.30
15 | CNc1nccc(-c2cccnc2Oc2cc(C(=O)N3CCc4ccc(C(F)(F)F)cc43)ccc2C)n1 [Example 364, N-methyl-4-(2-((2-methyl-5-((6-(trifluoromethyl)-2,3-dihydro-1H-indol-1-yl)carbonyl)phenyl)oxy)-3-pyridinyl)-2-pyrimidinamine] | > 5.30
16 | CNc1nccc(-c2cccnc2Oc2cc(C(=O)N3CCCc4ccc(C(F)(F)F)cc43)ccc2C)n1 [Example 365, N-methyl-4-(2-((2-methyl-5-((7-(trifluoromethyl)-3,4-dihydro-1(2H)-quinolinyl)carbonyl)phenyl)oxy)-3-pyridinyl)-2-pyrimidinamine] | > 5.30
17 | CNc1ncnc(-c2cccnc2Oc2cc(C(=O)Nc3cc(C(F)(F)F)ccc3OCCN3CCCC3)ccc2F)n1 [Example 366, 4-fluoro-3-((3-(4-(methylamino)-1,3,5-triazin-2-yl)-2-pyridinyl)oxy)-N-(2-((2-(1-pyrrolidinyl)ethyl)oxy)-5-(trifluoromethyl)phenyl) benzamide] | > 5.30
18 | CNc1ncnc(-c2cccnc2Oc2ccc(F)c(C(=O)Nc3cc(C(F)(F)F)ccc3OCCN3CCCC3)c2)n1 [Example 367, 2-fluoro-5-((3-(4-(methylamino)-1,3,5-triazin-2-yl)-2-pyridinyl)oxy)-N-(2-((2-(1-pyrrolidinyl)ethyl)oxy)-5-(trifluoromethyl)phenyl) benzamide] | > 5.30
19 | CNc1ncnc(-c2cccnc2Oc2ccc(F)c(C(=O)Nc3cc(C(F)(F)F)ccc3N3CCN(C)CC3)c2)n1 [Example 368, 2-fluoro-5-((3-(4-(methylamino)-1,3,5-triazin-2-yl)-2-pyridinyl)oxy)-N-(2-(4-methyl-1-piperazinyl)-5-(trifluoromethyl)phenyl) benzamide] | > 5.30
20 | CNc1ncnc(-c2cccnc2Oc2ccc(F)c(C(=O)Nc3cc(C(F)(F)F)ccc3N(C)CCCN(C)C)c2)n1 [Example 369, N-(2-((3-(dimethylamino)propyl) (methyl)amino)-5-(trifluoromethyl)phenyl)-2-fluoro-5-((3-(4-(methylamino)-1,3,5-triazin-2-yl)-2-pyridinyl)oxy)benzamide] | > 5.30
21 | CNc1ncnc(-c2cccnc2Oc2ccc(F)c(C(=O)Nc3cc(C(F)(F)F)ccc3OC)c2)n1 [Example 371, 2-fluoro-5-((3-(4-(methylamino)-1,3,5-triazin-2-yl)-2-pyridinyl)oxy)-N-(2-(methyloxy)-5-(trifluoromethyl)phenyl) benzamide] | > 5.30
